Measurements reported in PubChem BioAssay AID504774 (Drosophila RNAi Screening Center, 2011)
Assay: 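Fly genes whose loss alters survival after alkylation damage to DNA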 (primary screen). Cells: Drosophila Kc167 cells. Reagent: long dsRNA against Drosophila genes, about 0.25 µg dsRNA per well. Timing: about 6 days: 3 days knock-down, then 3 days with or without MMS. Challenge: methyl methanesulphonate 0.004% (w/v) for 3 days after knock-down. Detection: 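ATP-dependent luminescence as a measure of live cells in MMS-exposed wells, quantile normalised within each plate, with replicate values also given as a mean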. Reading the numbers: mean viability with MMS and viability with MMS: higher = more surviving cells after MMS.
In all, the deposit lists about 23,000 reagents; below is a random part of those that have a named target and a result. 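Values are quantile-normalised luminescence on an arbitrary scale; higher means more cells surviving MMS.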 The numbers tell different reagents against one gene apart. Reagent sequences are not shown.

no.	Gene	reagent no.	mean viability with MMS	viability with MMS, replicate 1	viability with MMS, replicate 2
1	CG14232 (GeneID 32983)	1	3.66e6	4.06e6	4.29e6
2	robl37BC (GeneID 35166)	1	3.56e6	3.96e6	4.11e6
3	GstD9 (GeneID 41502)	1	3.79e6	4.37e6	4.08e6
4	CG9003 (GeneID 36244)	1	3.47e6	4.00e6	3.91e6
5	hig (GeneID 35949)	1	3.34e6	3.83e6	3.71e6
6	hig (GeneID 35949)	2	3.51e6	4.08e6	3.90e6
7	hig (GeneID 35949)	3	3.57e6	4.03e6	4.04e6
8	Tis11 (GeneID 32222)	1	2.60e6	3.72e6	3.45e6
9	Tis11 (GeneID 32222)	2	3.77e6	4.30e6	4.23e6
10	CG32683 (GeneID 31970)	1	3.51e6	3.90e6	4.05e6
11	CG32683 (GeneID 31970)	2	3.50e6	3.92e6	4.00e6
12	CG32683 (GeneID 31970)	3	3.65e6	4.08e6	4.17e6
13	CG12057 (GeneID 31854)	1	3.64e6	4.11e6	4.11e6
14	mrj (GeneID 36797)	1	3.49e6	3.99e6	3.95e6
15	FipoQ (GeneID 43475)	1	3.38e6	3.84e6	3.86e6
16	GILT3 (GeneID 42787)	1	3.43e6	3.96e6	3.78e6
17	CG32733 (retired record) (GeneID 318179)	1	3.56e6	4.13e6	3.93e6
18	Chc (GeneID 32537)	1	3.53e6	3.92e6	4.15e6
19	CG11191 (GeneID 35765)	1	3.43e6	3.84e6	3.91e6
20	CG11191 (GeneID 35765)	2	3.70e6	4.28e6	4.12e6
21	CG13442 (GeneID 37349)	1	3.79e6	4.16e6	4.25e6
22	CG12116 (GeneID 31782)	1	3.58e6	4.13e6	4.01e6
23	porin (GeneID 34500)	1	3.54e6	4.20e6	3.85e6
24	CG15322 (GeneID 33012)	1	3.22e6	3.71e6	3.71e6
25	CG15322 (GeneID 33012)	2	3.50e6	3.95e6	4.03e6
26	Ccs (GeneID 46035)	1	3.63e6	4.07e6	4.10e6
27	CG9664 (GeneID 33540)	1	3.58e6	4.07e6	4.06e6
28	CG34280 (GeneID 5740878)	1	3.47e6	3.99e6	3.88e6
29	CG7379 (GeneID 42140)	1	3.82e6	4.18e6	4.34e6
30	Ugt304A1 (GeneID 53501)	1	3.45e6	3.98e6	3.86e6
31	Npc2g (GeneID 43648)	1	3.66e6	4.11e6	4.18e6
32	Tango9 (GeneID 41450)	1	3.61e6	4.13e6	4.08e6
33	HGTX (GeneID 53446)	1	3.58e6	4.08e6	4.04e6
34	HGTX (GeneID 53446)	2	3.64e6	4.16e6	4.06e6
35	mRpS31 (GeneID 39749)	1	3.50e6	4.01e6	3.93e6
36	CG3702 (GeneID 33628)	1	3.54e6	4.05e6	3.97e6
37	CG34305 (GeneID 5740825)	1	3.76e6	4.26e6	4.22e6
38	CG42269 (GeneID 38689)	1	3.60e6	4.06e6	4.12e6
39	CG42269 (GeneID 38689)	2	3.92e6	4.60e6	4.22e6
40	Men (GeneID 47173)	1	3.54e6	3.91e6	4.13e6
41	Men (GeneID 47173)	2	3.43e6	3.99e6	4.08e6
42	Men (GeneID 47173)	3	3.55e6	4.08e6	3.94e6
43	Rh5 (GeneID 34615)	1	3.51e6	3.96e6	3.99e6
44	CG3408 (GeneID 39107)	1	3.63e6	4.00e6	4.18e6
45	Npc2h (GeneID 43649)	1	3.57e6	4.13e6	3.95e6
46	Tehao (GeneID 34761)	1	3.51e6	4.05e6	3.92e6

Look-ups from the list:
For “viability with MMS, replicate 2”, Men (GeneID 47173) #1 reads 4.13e6
Entry of Tis11 (GeneID 32222) #1 under “viability with MMS, replicate 1”: 3.72e6
Under “viability with MMS, replicate 2”, Chc (GeneID 32537) reads 4.15e6
